Results on 80 compounds are retold here after publication PMC12040169 (PLOS Biology, 2025).

Each structure is given as a SMILES string. The list shows a part of the results.

For the assay, the system named is T1, CTL2-GFP (C. trachomatis L2/434/Bu, GFP-expressing).
T1 construct: L2/434/Bu, GFP-expressing
Also on record: species or system HeLa; Intracellular C. trachomatis growth in HeLa cells, bulk GFP fluorescence relative to DMSO. Conditions: bulk GFP, single well; 28.5 h, 10 µM; inhibitor.
`Cc1cc2c(cc3c(=O)n(CCN4CCCC4)nc(C)n32)s1` [CBK284126]: the “% of control remaining” value stood at 147.783%. Then `COc1cc2cc(C(=O)N3CCN(Cc4ccc5c(c4)OCO5)CC3)c(=O)oc2cc1OC` [CBK074790], with 113.065%; and `Cc1ccc(COc2ccc(/C=N/NC(=O)CN3CCCCC3)cc2)cc1` [CBK262227], with 96.4195%; and `O=C(NCCc1nc2ccccc2[nH]1)Nc1ccccc1` [CBK261803], with 106.167%. The same measure for `COC(=O)[C@H]1CCc2ccccc2N1C(C)=O` [CBK284256]: 110.256%; for `CCN(CC)C(=O)/C=C/c1ccc(C(C)C)cc1` [CBK149636]: 112.541%. Then `O=C(c1ccccc1Cl)c1cc(Cl)ccc1-n1ccnc1` [CBK005151], with 85.5646%. In the case of `CN(C)CCCOC(=O)CN1c2ccccc2CCc2ccccc21` [CBK022863C], the “% of control remaining” value is 123.054%. In the case of `Cn1c(=O)c(C(N)=O)c(O)c2ccccc21` [CBK027440], the “% of control remaining” value turned out to be 100%. The same measure for `CCNC(=O)C1(Cc2ccc(-c3cccs3)cc2)CCN(C(=O)c2ccccc2)CC1` [CBK285794]: 149.136%; for `CCOc1ccc(N(CC(=O)O)S(=O)(=O)c2ccc(SC)cc2)cc1` [CBK263764]: 122.83%; for `CNC(=O)c1ccc(OC)c(S(=O)(=O)NC)c1` [CBK270153]: 154.661%. As for `Cc1ccc(Cn2c(=N)n(CC(=O)c3cc(C(C)(C)C)c(O)c(C(C)(C)C)c3)c3ccccc32)cc1` [CBK262458B], the “% of control remaining” value was determined as 14.7302%. The same measure for `O=C1C2C3C=CC(C3)C2C(=O)N1CCNCCO` (centres unmarked) [CBK264414]: 142.414%. The same measure for `Cc1nccn1CC(=O)N1CCCC(C)(C(=O)NC2CCCC2)C1` (centres unmarked) [CBK282210]: 123.518%; for `CCOC(=O)c1ccc(N2C(=O)CC(N3CCN(c4cccc(OC)c4)CC3)C2=O)cc1` (centres unmarked) [CBK265396]: 100%.

`CC(C)(C)c1ccc([S+]([O-])c2cncc(N3CCNCC3)n2)cc1` (centres unmarked) [CBK051434C]: the “% of control remaining” value is 101.992%. The same measure for `Cc1cc(C)c2c(c1)C1(C(=O)N2)C(C#N)=C(N)Oc2[nH]nc(-c3ccccc3)c21` (centres unmarked) [CBK267367]: 150.035%.

For `CC(C)c1nn(CN(C)Cc2ccccc2)c(=S)[nH]1` [CBK295166], the “% of control remaining” value was found to be 148.528%. Then `CN1CCC(Oc2nc3ccccc3nc2C(F)(F)F)CC1` [CBK113299], with 102%; and `Cc1ccc(OCCNC(=O)C(C)Cn2cccn2)cc1` (centres unmarked) [CBK283252], with 78.7399%; and `Cc1nccn1CCCNC(=O)c1ccc(N2CCCC2)cc1` [CBK281589], with 147.82%. Consider `N#Cc1c(CN2CCCC(c3noc(C4CC4)n3)C2)cn2ccccc12` (centres unmarked) [CBK305332], for which the “% of control remaining” value is recorded as 122%. The same measure for `O=C(NCCc1c[nH]cn1)NC1CCCCC1` [CBK269975]: 118.255%. The same measure for `COc1ccccc1C(=O)NCC(=O)N/N=C/c1ccc(N(C)C)cc1` [CBK261989]: 103.953%; for `COc1cc(OC)nc(CN2C(=O)C3(CC(=O)N(C)C3=O)c3cc(F)ccc32)n1` (centres unmarked) [CBK075475]: 89.2466%. Then `CN(C)c1nc(NCc2ccccc2)nc(SCC(=O)Nc2ccccc2)n1` [CBK268810], with 99.4615%; and `CCOC(=O)c1[nH]c2ccccc2c1NC(=O)[C@@H]1CCCN1C` [CBK160171T], with 110.847%.

Take `CN(C)CCN(Cc1ccccc1)C(=O)NCc1ccc(Cl)cc1` [CBK155106]: the “% of control remaining” value came to 104.237%.

For `Nc1nnc(Sc2ccc([N+](=O)[O-])c3nonc23)s1` [CBK266712], the “% of control remaining” value came to 100%.

As to `O=C(O)CCc1ccc(-c2ccc(Nc3cccnc3)nc2)cc1` [CBK037768], the “% of control remaining” value turned out to be 172.624%. The same measure for `CCCC(=O)N1C2CCC1c1cnc3cc(-c4ccco4)nn3c1C2` (centres unmarked) [CBK284383]: 117.636%; for `CN(C)CCN(Cc1ccccc1)C(=O)NCc1c(Cl)cccc1Cl` [CBK155107]: 101.904%. Then `CC(NC(=O)CCn1cncn1)c1cccs1` (centres unmarked) [CBK282199], with 151.717%; and `Cc1cc2c(cc1Br)NC(=O)/C2=N\O` [CBK288453], with 94.6323%. For the compound `COc1ccc(-c2cc(=O)oc3cc(OCC(=O)c4cc5ccccc5o4)ccc23)cc1` [CBK265634], the “% of control remaining” value is listed as 127.471%.

For `Nc1ccc(-c2cncc(N3CCN(c4ccncc4)CC3)n2)cc1` [CBK065681], the “% of control remaining” value was 111.363%. For the compound `CC(Oc1cccc(Cl)c1)C(=O)NCc1ccc(S(N)(=O)=O)cc1` (centres unmarked) [CBK265477], the “% of control remaining” value came out at 100%. The same measure for `COc1ccccc1CC(=O)N1CCC(c2onc3c2CCC3)CC1` [CBK284464]: 78.4301%. The same measure for `CN1C(=O)CC2(C1=O)C(=O)N(CCCn1c(=O)n(C)c3ccccc31)c1ccc(F)cc12` (centres unmarked) [CBK075441]: 82.0923%; for `CCOC(=O)c1ccccc1OC(=O)c1ccc2c(c1)C1C=CCC1C(C(=O)O)N2` (centres unmarked) [CBK265155]: 120.277%. Then `CC(C)c1cccc(-n2cc(O)c(C(=O)NCCCn3cccn3)n2)c1` [CBK305360], with 114.689%; and `COc1ccc(C(NC(=O)C2CCN(C(=O)OCc3ccccc3)CC2)c2ccccc2C)cn1` (centres unmarked) [CBK059726], with 106.989%. As to `c1ccc2sc(-c3cc(N4CCN(CCN5CCCC5)CC4)ncn3)cc2c1` [CBK091172], the “% of control remaining” value came out at 88.5478%. The same measure for `CCOC(=O)c1ccc(COc2cccc(-c3cnc4ccccc4n3)c2)cc1` [CBK266395]: 121.218%.

In the case of `C[C@]12C(=O)c3ccccc3NC(=O)C1[C@H]2C(=O)N1CCCCC1` (some centres unmarked) [CBK285281], the “% of control remaining” value is 134.333%.

With `CSc1nc(N)n(-c2cc(C(F)(F)F)cc(C)n2)n1` [CBK005941], the “% of control remaining” value was 128.477%. The same measure for `COc1cccc(C2C=C(c3cccnc3)Nc3ncnn32)c1OC` (centres unmarked) [CBK288062]: 143.487%; for `CC(C)c1nccn1-c1ccc(NC(=O)Cn2ccnc2)cc1` [CBK281381]: 116.22%. The same measure for `Cc1sc(NC(=O)CC(C)(C)CC(=O)Nc2sc(C)c(C)c2C(=O)O)c(C(=O)O)c1C` [CBK296094]: 126.923%; for `CC(C)C12CN3CC(C(C)C)(CN(C1)C3c1c[nH]c3ccccc13)C2=O` (centres unmarked) [CBK263740]: 108.96%; for `O=C(CSc1nnc(-c2ccccn2)[nH]1)NC1CC2CCC1C2` (centres unmarked) [CBK269994]: 107.214%. Then `COc1cncc(-c2cc(N3CCN(S(=O)(=O)c4ccc(Cl)cc4)CC3)ncn2)c1` [CBK091162], with 94.8552%; and `COc1ccc(N2CC(NC(=O)Nc3ccccn3)CC2=O)cc1` (centres unmarked) [CBK287642], with 120.013%. Consider `CCn1cc(Cl)c(C(=O)NC2CCN(c3cc(C)n[nH]3)CC2)n1` [CBK304322], for which the “% of control remaining” value was 118.299%. Then `CS(=O)(=O)c1ccc(Cn2c(=O)n(S(=O)(=O)c3ccccc3)c3ccccc32)cc1` [CBK106530], with 156.513%; and `CCN(CC)C(=O)CSc1nnc[nH]1` [CBK026212], with 128.821%; and `O=C(c1cc(F)c(F)cc1F)N1CCC2(CCCN(CCS(=O)(=O)c3ccccc3)C2)C1` (centres unmarked) [CBK132003], with 107.6%.

Take `O=C(Nc1ccc(F)cc1)c1[nH]c2ccccc2c1NS(=O)(=O)c1ccc(Cl)c(Cl)c1Cl` [CBK050091]: the “% of control remaining” value worked out at 70.8366%. Then `O=c1c2c(nc(SCCc3ccccc3)n1CCc1ccccc1)-c1ccccc1CC21CCCCC1` [CBK262661], with 111.308%.

With `CC(C)(C)c1cc(CN2CCCCC2)c(C(=O)O)o1` [CBK266556C], the “% of control remaining” value was found to be 151.638%. Take `Cc1cccc(-c2ncc(C(=O)NCCCN3CCCC3=O)cc2-c2ccco2)c1` [CBK037455]: the “% of control remaining” value stood at 163.146%. As to `CCn1cc(CN2CCC(O)(c3ccc(C)cc3)CC2)cn1` [CBK282735], the “% of control remaining” value worked out at 127.086%. Then `O=C(Nc1ccccc1[N+](=O)[O-])C(c1ccccc1)N1CCOCC1` (centres unmarked) [CBK269390], with 117.807%; and `c1cncc(-c2cc(NCCc3ccncc3)ncn2)c1` [CBK037716], with 96.5059%; and `c1ccc(CCCNc2ncc(-c3ccc(N4CCOCC4)cc3)n3ccnc23)cc1` [CBK091223], with 156.25%.

For the compound `O=C1NCCCC12CCN(Cc1cccc3ncccc13)CC2` [CBK285033], the “% of control remaining” value came out at 130.126%. The same measure for `CCOC(=O)N1CCN(Cc2ccc(OCC3CCCNC3)cc2)CC1` (centres unmarked) [CBK307355]: 139.117%; for `Cc1sc(NC(=S)NC(=O)c2ccco2)c(C(N)=O)c1C` [CBK266272]: 189.891%; for `CC(Nc1ncnc2c1cnn2C)c1ccccc1` (centres unmarked) [CBK288093]: 131.644%. Consider `CN1CCC(N(C)C/C(Cl)=C/c2ccccc2)CC1` [CBK261903], for which the “% of control remaining” value is reported as 100%. As for `COCCNC(=O)N1CCN(c2ccccc2)CC1` [CBK155181], the “% of control remaining” value amounted to 101.839%. Then `O=C(CN1C(=O)COc2ccccc21)NCc1ccco1` [CBK269682], with 127.408%; and `O=C(O)C1CCCCC1C(=O)N1CCc2ccccc2C1` (centres unmarked) [CBK286594], with 98.0746%; and `O=C(Nc1ncc(-c2ccccc2)s1)c1csc([N+](=O)[O-])c1` [CBK298293], with 132.813%. The same measure for `Cc1ccccc1C1(O)CCN(CC(O)c2ccc3c(c2)CCC3)CC1` (centres unmarked) [CBK286329]: 111.697%; for `O=C(Cc1ccccc1)N1CCN(S(=O)(=O)N2CCCCC2)CC1` [CBK269097]: 154.756%. The same measure for `Cc1onc(-c2ccccc2Cl)c1C(=O)N(Cc1nc(-c2ccccc2)no1)C(C)C` [CBK269289]: 79.6621%; for `CCn1c(=O)n(CCC(N)=O)c2cc(S(=O)(=O)N(C)C)ccc21` [CBK305577]: 139.953%. As for `O=C(NS(=O)(=O)c1cccc(-c2nnco2)c1)C1CC1C1CCCCC1` (centres unmarked) [CBK305924], the “% of control remaining” value was 17.3338%.
